In article PMC11662656:
For some of these results: A weaker result is weaker than the reference pair of the same experiment. For some of these results: The exact form of at least one protein or probe is not confirmed.

Key:
[1] = target: Loc1p (22-35) (Saccharomyces cerevisiae) (UniProt P43586); experiment: NMR (1D imino titration); details: no shift at 10-fold excess, shifts only at 15-22-fold; NMR: 20 mM Na phosphate pH 7.4, 50 mM NaCl, 278 K; residues 22-35
[2] = target: Loc1p (118-131) (Saccharomyces cerevisiae) (UniProt P43586); experiment: NMR (1D imino titration); details: no shift at 10-fold excess, shifts only at 15-22-fold; NMR: 20 mM Na phosphate pH 7.4, 50 mM NaCl, 278 K; residues 118-131
[3] = target: MBP-Loc1p (Saccharomyces cerevisiae) (UniProt P43586); experiment: EMSA (in-gel FRET); details: EMSA: 20 mM HEPES pH 7.8, 200 mM NaCl, 2 mM MgCl2, 2 mM DTT, 4% glycerol, 25 C, 5 nM RNA, 100 ug/ml tRNA (omitted in competition), recombinant protein, residues 1-204, protein details: MBP, label: 5' Cy3 / 5' Cy5

UCUCUGGUUAGGAAACUAACUAGGGA [dsRNA tetraloop]
binding result [1]: binds more weakly
binding result [2]: binds more weakly

AAAAAAAAAAAAAAAAAA / UUUUUUUUUUUUUUUUUU [A18/U18 dsRNA]
binding result [3]: binds

AAAAAAAAAAAAAAAAAAAAA / UUUUUUUUUUUUUUUUUU [A21 DNA/U18 RNA hybrid]
binding result ([3]; DNA:RNA hybrid): binds
